Reference: the supplement of paper PMC12819154, “High-throughput peptide-centric local stability assay extends protein–ligand identification to membrane proteins, tissues and bacteria” (Nature Structural & Molecular Biology, 2025)
Some of the results follow. Small differences around the control level are noise.

Protein sequences, listed by entry. Tags and fused reporters are not part of them. Lines headed by an entry give the natural chain unless they say otherwise; changes in a name come on top.
UniProt Q9H9J4: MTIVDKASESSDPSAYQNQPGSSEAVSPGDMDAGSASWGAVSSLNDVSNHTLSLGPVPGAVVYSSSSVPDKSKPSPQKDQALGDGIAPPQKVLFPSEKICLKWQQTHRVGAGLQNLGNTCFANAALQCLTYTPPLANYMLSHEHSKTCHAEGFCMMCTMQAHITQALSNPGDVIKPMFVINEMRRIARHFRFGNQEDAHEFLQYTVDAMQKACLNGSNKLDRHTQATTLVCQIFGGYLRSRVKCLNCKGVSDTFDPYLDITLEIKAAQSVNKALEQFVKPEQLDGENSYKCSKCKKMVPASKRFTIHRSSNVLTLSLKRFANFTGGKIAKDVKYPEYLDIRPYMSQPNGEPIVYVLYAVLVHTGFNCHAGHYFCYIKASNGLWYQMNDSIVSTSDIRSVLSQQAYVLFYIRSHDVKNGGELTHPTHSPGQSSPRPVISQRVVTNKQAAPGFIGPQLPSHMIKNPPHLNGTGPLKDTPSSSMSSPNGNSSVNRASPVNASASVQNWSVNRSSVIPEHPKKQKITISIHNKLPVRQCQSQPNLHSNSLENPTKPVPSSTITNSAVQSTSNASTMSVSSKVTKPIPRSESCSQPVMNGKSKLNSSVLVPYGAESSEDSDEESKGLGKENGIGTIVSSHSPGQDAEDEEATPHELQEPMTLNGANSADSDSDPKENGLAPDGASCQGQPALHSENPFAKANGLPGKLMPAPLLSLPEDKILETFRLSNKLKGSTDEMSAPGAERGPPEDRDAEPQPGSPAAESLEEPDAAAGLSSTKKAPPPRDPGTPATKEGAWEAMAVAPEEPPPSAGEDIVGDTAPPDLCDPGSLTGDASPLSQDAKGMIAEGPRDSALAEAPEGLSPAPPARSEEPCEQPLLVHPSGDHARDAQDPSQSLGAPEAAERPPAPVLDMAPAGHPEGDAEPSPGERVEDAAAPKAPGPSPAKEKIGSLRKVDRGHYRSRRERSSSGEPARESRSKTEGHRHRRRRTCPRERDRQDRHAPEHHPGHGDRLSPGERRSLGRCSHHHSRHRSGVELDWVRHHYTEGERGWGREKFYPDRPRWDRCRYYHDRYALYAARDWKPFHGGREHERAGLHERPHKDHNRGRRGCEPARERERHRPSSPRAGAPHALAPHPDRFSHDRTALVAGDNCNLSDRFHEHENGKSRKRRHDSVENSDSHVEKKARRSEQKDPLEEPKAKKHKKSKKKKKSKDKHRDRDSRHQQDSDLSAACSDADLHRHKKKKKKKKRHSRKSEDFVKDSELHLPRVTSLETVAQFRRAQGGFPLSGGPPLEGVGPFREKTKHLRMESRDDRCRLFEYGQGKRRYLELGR
UniProt Q9HC44: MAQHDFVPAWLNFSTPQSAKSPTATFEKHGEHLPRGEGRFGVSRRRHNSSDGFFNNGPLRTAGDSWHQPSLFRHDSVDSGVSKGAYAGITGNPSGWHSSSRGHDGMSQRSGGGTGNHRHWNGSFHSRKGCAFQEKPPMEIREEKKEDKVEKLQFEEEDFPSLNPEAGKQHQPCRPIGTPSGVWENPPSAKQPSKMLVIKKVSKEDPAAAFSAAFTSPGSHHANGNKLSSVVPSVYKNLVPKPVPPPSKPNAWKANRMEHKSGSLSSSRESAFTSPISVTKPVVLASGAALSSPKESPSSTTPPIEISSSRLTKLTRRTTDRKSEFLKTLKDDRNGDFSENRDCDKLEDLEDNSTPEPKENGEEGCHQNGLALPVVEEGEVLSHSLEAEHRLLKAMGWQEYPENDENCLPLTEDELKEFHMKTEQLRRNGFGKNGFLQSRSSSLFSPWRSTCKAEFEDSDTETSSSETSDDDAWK
UniProt Q9HCE7, whole entry: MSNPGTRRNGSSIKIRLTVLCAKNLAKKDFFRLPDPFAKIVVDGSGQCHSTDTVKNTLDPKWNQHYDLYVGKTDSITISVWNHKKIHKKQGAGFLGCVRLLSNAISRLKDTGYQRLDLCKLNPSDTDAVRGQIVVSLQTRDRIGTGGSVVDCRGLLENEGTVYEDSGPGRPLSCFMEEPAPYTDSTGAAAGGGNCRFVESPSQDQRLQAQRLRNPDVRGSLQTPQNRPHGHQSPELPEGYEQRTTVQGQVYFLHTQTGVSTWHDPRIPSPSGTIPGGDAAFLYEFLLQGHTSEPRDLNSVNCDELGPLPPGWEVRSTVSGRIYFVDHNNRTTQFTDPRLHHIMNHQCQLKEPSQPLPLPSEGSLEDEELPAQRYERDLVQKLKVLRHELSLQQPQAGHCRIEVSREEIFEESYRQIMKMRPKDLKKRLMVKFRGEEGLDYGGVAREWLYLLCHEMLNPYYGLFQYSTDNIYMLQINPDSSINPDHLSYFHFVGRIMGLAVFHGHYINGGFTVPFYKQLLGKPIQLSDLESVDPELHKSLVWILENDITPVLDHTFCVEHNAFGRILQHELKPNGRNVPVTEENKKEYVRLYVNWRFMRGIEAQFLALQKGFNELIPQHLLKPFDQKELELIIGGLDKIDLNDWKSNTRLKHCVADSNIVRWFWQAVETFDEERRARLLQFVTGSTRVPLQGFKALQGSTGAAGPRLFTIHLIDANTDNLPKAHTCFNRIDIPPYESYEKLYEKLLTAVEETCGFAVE
UniProt Q9H1Z4: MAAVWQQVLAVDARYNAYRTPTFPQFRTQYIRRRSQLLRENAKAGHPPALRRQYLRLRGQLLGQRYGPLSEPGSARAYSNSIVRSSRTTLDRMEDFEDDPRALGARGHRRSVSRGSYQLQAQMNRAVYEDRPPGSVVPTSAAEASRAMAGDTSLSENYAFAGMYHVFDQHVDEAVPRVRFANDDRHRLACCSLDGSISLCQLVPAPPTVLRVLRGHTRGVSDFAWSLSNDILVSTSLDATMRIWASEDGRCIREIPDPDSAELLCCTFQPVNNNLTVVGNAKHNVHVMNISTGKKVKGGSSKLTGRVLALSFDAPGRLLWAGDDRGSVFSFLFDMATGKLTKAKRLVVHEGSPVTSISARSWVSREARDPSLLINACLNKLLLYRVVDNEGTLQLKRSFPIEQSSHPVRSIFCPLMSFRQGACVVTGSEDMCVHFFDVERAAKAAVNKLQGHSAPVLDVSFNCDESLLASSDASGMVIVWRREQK
UniProt Q9HAY2: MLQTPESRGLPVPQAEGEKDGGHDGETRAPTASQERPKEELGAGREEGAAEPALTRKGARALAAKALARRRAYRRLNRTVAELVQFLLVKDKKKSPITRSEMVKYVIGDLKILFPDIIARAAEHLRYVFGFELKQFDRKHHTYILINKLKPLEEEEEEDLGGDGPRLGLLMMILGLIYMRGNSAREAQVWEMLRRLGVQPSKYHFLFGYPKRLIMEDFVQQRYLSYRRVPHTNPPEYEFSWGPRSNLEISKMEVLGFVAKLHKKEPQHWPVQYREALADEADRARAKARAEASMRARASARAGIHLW
UniProt Q9HBH9: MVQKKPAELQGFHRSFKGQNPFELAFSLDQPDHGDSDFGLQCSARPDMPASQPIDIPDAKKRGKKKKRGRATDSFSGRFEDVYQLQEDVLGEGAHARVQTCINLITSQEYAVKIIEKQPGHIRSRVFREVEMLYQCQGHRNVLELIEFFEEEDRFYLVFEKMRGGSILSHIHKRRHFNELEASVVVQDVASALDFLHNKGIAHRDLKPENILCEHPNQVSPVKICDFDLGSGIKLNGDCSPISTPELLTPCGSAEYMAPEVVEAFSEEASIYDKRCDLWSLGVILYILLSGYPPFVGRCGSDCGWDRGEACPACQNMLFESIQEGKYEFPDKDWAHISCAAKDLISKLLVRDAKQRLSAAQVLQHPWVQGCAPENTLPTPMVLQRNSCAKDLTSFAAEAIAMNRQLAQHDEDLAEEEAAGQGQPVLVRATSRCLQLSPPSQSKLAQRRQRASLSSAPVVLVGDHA
UniProt Q9H792: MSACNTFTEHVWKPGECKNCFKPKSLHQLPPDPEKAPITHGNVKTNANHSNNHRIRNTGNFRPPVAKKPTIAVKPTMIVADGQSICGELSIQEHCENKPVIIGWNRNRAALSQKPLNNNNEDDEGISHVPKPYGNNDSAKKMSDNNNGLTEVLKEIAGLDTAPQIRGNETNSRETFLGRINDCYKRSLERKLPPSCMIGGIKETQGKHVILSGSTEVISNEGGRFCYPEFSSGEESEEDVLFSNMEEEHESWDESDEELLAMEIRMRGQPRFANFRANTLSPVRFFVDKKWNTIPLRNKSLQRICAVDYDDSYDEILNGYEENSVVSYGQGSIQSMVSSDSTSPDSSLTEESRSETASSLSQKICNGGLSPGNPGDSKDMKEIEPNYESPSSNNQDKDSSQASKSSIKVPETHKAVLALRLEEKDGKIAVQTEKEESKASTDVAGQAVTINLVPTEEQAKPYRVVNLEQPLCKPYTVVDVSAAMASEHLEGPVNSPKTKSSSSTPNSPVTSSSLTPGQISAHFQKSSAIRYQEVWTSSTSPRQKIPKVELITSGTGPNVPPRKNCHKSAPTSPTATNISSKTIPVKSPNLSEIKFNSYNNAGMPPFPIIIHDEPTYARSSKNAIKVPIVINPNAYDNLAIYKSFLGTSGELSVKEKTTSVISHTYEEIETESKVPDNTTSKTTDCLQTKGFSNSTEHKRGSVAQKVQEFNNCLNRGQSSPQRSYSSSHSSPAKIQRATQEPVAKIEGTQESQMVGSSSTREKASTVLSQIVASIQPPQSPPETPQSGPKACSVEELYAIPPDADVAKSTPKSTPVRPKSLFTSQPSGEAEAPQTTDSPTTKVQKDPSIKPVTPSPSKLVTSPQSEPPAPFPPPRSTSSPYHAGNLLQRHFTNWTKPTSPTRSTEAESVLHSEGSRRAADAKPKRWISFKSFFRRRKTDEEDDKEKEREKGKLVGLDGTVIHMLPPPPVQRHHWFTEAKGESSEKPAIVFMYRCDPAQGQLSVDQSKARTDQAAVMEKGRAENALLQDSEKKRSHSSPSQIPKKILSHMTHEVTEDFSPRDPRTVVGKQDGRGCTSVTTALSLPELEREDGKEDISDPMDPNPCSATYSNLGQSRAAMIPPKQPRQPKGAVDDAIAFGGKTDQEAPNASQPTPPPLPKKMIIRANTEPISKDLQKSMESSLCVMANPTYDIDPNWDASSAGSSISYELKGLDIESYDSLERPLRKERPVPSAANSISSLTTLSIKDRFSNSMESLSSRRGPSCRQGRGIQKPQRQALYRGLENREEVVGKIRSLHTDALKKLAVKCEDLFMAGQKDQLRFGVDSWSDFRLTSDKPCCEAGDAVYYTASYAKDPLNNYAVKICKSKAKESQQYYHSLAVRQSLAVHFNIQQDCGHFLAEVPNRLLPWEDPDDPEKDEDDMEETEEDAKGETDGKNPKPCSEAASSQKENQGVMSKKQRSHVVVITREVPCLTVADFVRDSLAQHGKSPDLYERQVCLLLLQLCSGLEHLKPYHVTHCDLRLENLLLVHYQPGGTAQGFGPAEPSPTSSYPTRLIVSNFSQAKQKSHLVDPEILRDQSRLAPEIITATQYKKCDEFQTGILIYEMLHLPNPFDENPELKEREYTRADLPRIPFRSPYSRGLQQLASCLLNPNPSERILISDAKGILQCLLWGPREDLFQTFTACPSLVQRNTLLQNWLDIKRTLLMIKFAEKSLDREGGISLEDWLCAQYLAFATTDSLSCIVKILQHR
UniProt Q9H5X1: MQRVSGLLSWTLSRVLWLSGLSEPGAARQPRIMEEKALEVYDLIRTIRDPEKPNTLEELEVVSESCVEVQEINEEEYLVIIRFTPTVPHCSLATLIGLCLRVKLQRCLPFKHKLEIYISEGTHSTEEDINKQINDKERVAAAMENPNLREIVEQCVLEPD
UniProt Q9HCI6: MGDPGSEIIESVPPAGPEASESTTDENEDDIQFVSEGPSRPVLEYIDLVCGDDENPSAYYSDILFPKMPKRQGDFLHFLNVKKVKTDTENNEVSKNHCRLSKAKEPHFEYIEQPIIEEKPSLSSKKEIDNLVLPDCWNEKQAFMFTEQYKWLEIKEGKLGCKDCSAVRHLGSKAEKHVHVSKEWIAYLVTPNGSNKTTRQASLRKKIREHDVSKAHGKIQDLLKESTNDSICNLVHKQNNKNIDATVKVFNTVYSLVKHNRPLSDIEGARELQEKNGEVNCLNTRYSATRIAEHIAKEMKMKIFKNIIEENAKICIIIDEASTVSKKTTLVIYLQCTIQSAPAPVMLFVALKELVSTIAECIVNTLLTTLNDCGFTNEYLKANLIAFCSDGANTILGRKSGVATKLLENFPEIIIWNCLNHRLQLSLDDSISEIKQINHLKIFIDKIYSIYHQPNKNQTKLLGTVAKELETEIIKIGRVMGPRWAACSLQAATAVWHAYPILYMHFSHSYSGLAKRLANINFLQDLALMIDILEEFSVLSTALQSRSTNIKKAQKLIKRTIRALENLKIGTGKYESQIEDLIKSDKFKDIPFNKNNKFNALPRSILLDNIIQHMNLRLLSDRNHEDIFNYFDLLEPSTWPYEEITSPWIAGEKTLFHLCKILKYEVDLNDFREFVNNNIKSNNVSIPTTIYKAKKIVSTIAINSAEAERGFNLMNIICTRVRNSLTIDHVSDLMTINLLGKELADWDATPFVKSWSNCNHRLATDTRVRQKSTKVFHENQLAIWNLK

compound: Cc1nc(Nc2ncc(C(=O)Nc3c(C)cccc3Cl)s2)cc(N2CCN(CCO)CC2)n1 [dasatinib]; assay: log2 fold change of tryptic peptide abundance, ligand vs vehicle (limited proteolysis) (log2 ratio); higher = more trypsin-susceptible (destabilized); conditions: ligand concentration: 5 uM; sample: K562 cleared lysate

Target | log2 fold change
USP42 (peptide sequence: VTSLETVAQFR, peptide start residue: 1261) (UniProt Q9H9J4) | -0.5
UniProt Q9HC36 (peptide sequence: ASDHGWVCDQR, peptide start residue: 302) | 0.163
SMYD3 (peptide sequence: LAFDIMR, peptide start residue: 395) (UniProt Q9H7B4) | -0.215
CARD9 (peptide sequence: KVQDLTALLSSKDDFIK, peptide start residue: 129) (UniProt Q9H257) | -0.227
BLZF1 (peptide sequence: KIPSTVEFCSTPAEK, peptide start residue: 321) (UniProt Q9H2G9) | -0.327
TTC12 (peptide sequence: MDADKEKDLQK, peptide start residue: 1) (UniProt Q9H892) | -0.227
GPBP1L1 (peptide sequence: HWNGSFHSR, peptide start residue: 119) (UniProt Q9HC44) | -0.264
UniProt Q9HCE7 (peptide sequence: FVESPSQDQR, peptide start residue: 197) | 0.35
UniProt Q9H201 (peptide sequence: NIVHNYSEAEIK, peptide start residue: 12) | 0.223
BCAS3 (peptide sequence: DVVGSGTELQR, peptide start residue: 873) (UniProt Q9H6U6) | 0.25
TNRC6C (peptide sequence: TITNLQQQIQQHQR, peptide start residue: 1191) (UniProt Q9HCJ0) | 0.407
GRPEL1 (peptide sequence: FDPYEHEALFHTPVEGK, peptide start residue: 170) (UniProt Q9HAV7) | 0.258
MMADHC (peptide sequence: HLGFSVDDLGCCKVIR, peptide start residue: 251) (UniProt Q9H3L0) | -0.142
EPC1 (peptide sequence: AVTILEMIK, peptide start residue: 244) (UniProt Q9H2F5) | 0.555
UPF3A (peptide sequence: KGSQDSGAPGEAMER, peptide start residue: 399) (UniProt Q9H1J1) | -0.411
CDT1 (peptide sequence: SMDTIVGMLHNR, peptide start residue: 199) (UniProt Q9H211) | -0.548
MTIF3 (peptide sequence: DTLNKDHGNDKESNVLHQ, peptide start residue: 261) (UniProt Q9H2K0) | 0.264
SAP30L (peptide sequence: NFIQSVR, peptide start residue: 79) (UniProt Q9HAJ7) | -0.0977
KANSL2 (peptide sequence: DGVSFCAEHVRR, peptide start residue: 83) (UniProt Q9H9L4) | 0.126

Target | log2 fold change
RAVER2 (peptide sequence: NQTSLLGEPPKEIR, peptide start residue: 565) (UniProt Q9HCJ3) | -0.249
YY1AP1 (peptide sequence: EVHQTLILDPAQR, peptide start residue: 153) (UniProt Q9H869) | 0.304
CBX8 (peptide sequence: KLDDTPSGAGKFPAGHSVIQLAR, peptide start residue: 230) (UniProt Q9HC52) | -0.138
TNS1 (peptide sequence: AGSLPNYATINGK, peptide start residue: 1502) (UniProt Q9HBL0) | -0.125
JPT2 (peptide sequence: MFQVPDSEGGR, peptide start residue: 1) (UniProt Q9H910) | -0.199
RRAGC (peptide sequence: ALTHNGTPR, peptide start residue: 388) (UniProt Q9HB90) | -0.0493
WDR13 (peptide sequence: TTLDRMEDFEDDPR, peptide start residue: 88) (UniProt Q9H1Z4) | -0.479
MAGEF1 (peptide sequence: ILFPDIIAR, peptide start residue: 112) (UniProt Q9HAY2) | 0.2
UniProt Q9HBH9 (peptide sequence: DLKPENILCEHPNQVSPVK, peptide start residue: 205) | -0.377
PEAK1 (peptide sequence: LIVSNFSQAK, peptide start residue: 1551) (UniProt Q9H792) | -0.218
TMEM165 (peptide sequence: KKDEEFQR, peptide start residue: 199) (UniProt Q9HC07) | 0.136
RPF1 (peptide sequence: MFASLFPHNPQFIGR, peptide start residue: 262) (UniProt Q9H9Y2) | -0.274
UniProt Q9H5X1 (peptide sequence: HKLEIYISEGTHSTEEDINK, peptide start residue: 112) | 0.286
KIAA1586 (peptide sequence: VFHENQLAIWNLK, peptide start residue: 775) (UniProt Q9HCI6) | -0.503
PLEKHA5 (peptide sequence: STTWLHPVTGEAVVTGHRR, peptide start residue: 35) (UniProt Q9HAU0) | 0.192
UniProt Q9H330 (peptide sequence: AVGPSGGGGETPR, peptide start residue: 26) | 0.00469
ACTL8 (peptide sequence: EEYGEHMR, peptide start residue: 358) (UniProt Q9H568) | 0.0765
L2HGDH (peptide sequence: GISYKQCGK, peptide start residue: 128) (UniProt Q9H9P8) | 0.361
RNPEP (peptide sequence: ASGEHSPGSGAAR, peptide start residue: 2) (UniProt Q9H4A4) | 0.0774

Individual results from the results shown.
Value of UniProt Q9H5X1 (peptide sequence: HKLEIYISEGTHSTEEDINK, peptide start residue: 112) under log2 fold change: 0.286
Value of RRAGC (peptide sequence: ALTHNGTPR, peptide start residue: 388) (UniProt Q9HB90) under log2 fold change: -0.0493
